Laboratory results reported in patent publication US20120034613A1, “Apparatus and Method for Testing Relationships Between Gene Expression and Physical Appearance of Skin” (NSE Products, Inc., priority 2010, published 2012).
This continues a long series; more values of the same kind are listed elsewhere.

Test system: EpidermFT™ Skin Model (EFT-400) full thickness skin cultures
Test: Affymetrix GeneChip HG U133 Plus 2.0 microarray global gene expression, agent-exposed vs untreated skin cultures
Format: cell-based, human
Conditions: Salicin 0.5%, 24 hr
[1] = 44790_s_at C13orf18 /// LOC728970

OCc1ccccc1O[C@@H]1O[C@H](CO)[C@@H](O)[C@H](O)[C@H]1O [Salicin, 2-(Hydroxymethyl)phenyl β-D-glucospyranoside]
Direction (37226_at BNIP1): up
Fold change (37226_at BNIP1): 2.163
Direction (40560_at TBX2): up
Fold change (40560_at TBX2): 2.044
Direction [1]: up
Fold change [1]: 2.258
Direction (200755_s_at CALU): up
Fold change (200755_s_at CALU): 2.052
Direction (200790_at ODC1): up
Fold change (200790_at ODC1): 2.276
Direction (201150_s_at TIMP3): up
Fold change (201150_s_at TIMP3): 2.058
Direction (201289_at CYR61): up
Fold change (201289_at CYR61): 2.214
Direction (201531_at ZFP36): up
Fold change (201531_at ZFP36): 2.225
Direction (201772_at AZIN1): up
Fold change (201772_at AZIN1): 2.049
Direction (202214_s_at CUL4B): up
Fold change (202214_s_at CUL4B): 2.058
Direction (202375_at SEC24D): up
Fold change (202375_at SEC24D): 2.296
Direction (202543_s_at GMFB): up
Fold change (202543_s_at GMFB): 2.213
Direction (202721_s_at GFPT1): up
Fold change (202721_s_at GFPT1): 2.266
Direction (202722_s_at GFPT1): up
Fold change (202722_s_at GFPT1): 2.26
Direction (202784_s_at NNT): up
Fold change (202784_s_at NNT): 2.054
Direction (202820_at AHR): up
Fold change (202820_at AHR): 2.272
Direction (202888_s_at ANPEP): up
Fold change (202888_s_at ANPEP): 2.201
Direction (203294_s_at LMAN1): up
Fold change (203294_s_at LMAN1): 2.05
Direction (203424_s_at IGFBP5): up
Fold change (203424_s_at IGFBP5): 2.27
Direction (203425_s_at IGFBP5): up
Fold change (203425_s_at IGFBP5): 2.176
Direction (203475_at CYP19A1): up
Fold change (203475_at CYP19A1): 2.29
Direction (203498_at RCAN2): up
Fold change (203498_at RCAN2): 2.281
Direction (203574_at NFIL3): up
Fold change (203574_at NFIL3): 2.169
Direction (203810_at DNAJB4): up
Fold change (203810_at DNAJB4): 2.053
Direction (203837_at MAP3K5): up
Fold change (203837_at MAP3K5): 2.262
Direction (203857_s_at PDIA5): up
Fold change (203857_s_at PDIA5): 2.204
Direction (203927_at NFKBIE): up
Fold change (203927_at NFKBIE): 2.057
Direction (203980_at FABP4): up
Fold change (203980_at FABP4): 2.251
Direction (204089_x_at MAP3K4): up
Fold change (204089_x_at MAP3K4): 2.283
Direction (204151_x_at AKR1C1): up
Fold change (204151_x_at AKR1C1): 2.205
Direction (204556_s_at DZIP1): up
Fold change (204556_s_at DZIP1): 2.173
Direction (204595_s_at STC1): up
Fold change (204595_s_at STC1): 2.234
Direction (204597_x_at STC1): up
Fold change (204597_x_at STC1): 2.234
Direction (204720_s_at DNAJC6): up
Fold change (204720_s_at DNAJC6): 2.275
Direction (204984_at GPC4): up
Fold change (204984_at GPC4): 2.289
Direction (205138_s_at UST): up
Fold change (205138_s_at UST): 2.241
Direction (205290_s_at BMP2): up
Fold change (205290_s_at BMP2): 2.065
Direction (205495_s_at GNLY): up
Fold change (205495_s_at GNLY): 2.202
Direction (205659_at HDAC9): up
Fold change (205659_at HDAC9): 2.071
Direction (205991_s_at PRRX1): up
Fold change (205991_s_at PRRX1): 2.165
Direction (206249_at MAP3K13): up
Fold change (206249_at MAP3K13): 2.252
Direction (206445_s_at PRMT1): up
Fold change (206445_s_at PRMT1): 2.175
Direction (207345_at FST): up
Fold change (207345_at FST): 2.17
Direction (207829_s_at BNIP1): up
Fold change (207829_s_at BNIP1): 2.164
Direction (208510_s_at PPARG): up
